This test concerns the target T1, endogenous AKTIP (human (endogenous in HEK 293 and LNCaP)) (UniProt Q9H8T0).
T1 sequence: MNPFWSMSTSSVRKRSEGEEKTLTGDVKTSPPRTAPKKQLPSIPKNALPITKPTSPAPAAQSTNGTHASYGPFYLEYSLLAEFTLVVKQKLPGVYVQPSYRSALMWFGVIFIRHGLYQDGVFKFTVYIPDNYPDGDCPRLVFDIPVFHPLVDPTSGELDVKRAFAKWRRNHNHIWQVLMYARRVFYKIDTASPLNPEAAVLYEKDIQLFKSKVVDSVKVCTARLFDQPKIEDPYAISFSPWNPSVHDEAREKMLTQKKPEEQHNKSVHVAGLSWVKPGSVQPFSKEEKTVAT
Put plainly: co-IP; LNCaP cell extracts with or without THD treatment, precipitated with AKTIP specific antibody, protein A/G agarose beads, immunoblotting of AKT and AKTIP.

These are yes or no findings as the source states them, for the method shown. Binding seen in cells or lysates may run through a third protein. Binding calls can cover weak binding; strength is not graded here.

As for “endogenous AKT (human (endogenous in LNCaP)) (enzyme)”, the binding result is “binds”.

The values above are taken from PMC8830441, “Interaction of TLK1 and AKTIP as a Potential Regulator of AKT Activation in Castration-Resistant Prostate Cancer Progression” (Pathophysiology, 2021).
